The list shows a part of the results.
Legend:
Experiment in all cases: log2 fold change, soluble protein after heating vs DMSO (PISA); higher = thermal stabilisation; K562 cells, 10 uM, 30 min; active = over 0.2 and 3.5 SD of the protein, either way, in both replicates (recomputed)
bafetinib = compound: Cc1ccc(NC(=O)c2ccc(CN3CC[C@H](N(C)C)C3)c(C(F)(F)F)c2)cc1Nc1nccc(-c2cncnc2)n1 [bafetinib]
How it was run: (§1)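 Aliquots of K562 cells (2×10^6 cells/mL) treated with 10 μM compound for 30 min were heated for 3 min over 48°C-58°C. After pooling and extraction in PBS with 0.5% NP-40 at 4°C, soluble protein from a 21,000xg, 90 min spin was quantified by TMTpro 16plex LC-MS/MS with channel sums equalised. Thermal stability is expressed against control samples, from duplicates, as a log2 fold change.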

Amino acid sequences for entries named in this document (tags omitted). A change or cut given only in a name is not applied to a line headed by its entry.
UniProt P50583: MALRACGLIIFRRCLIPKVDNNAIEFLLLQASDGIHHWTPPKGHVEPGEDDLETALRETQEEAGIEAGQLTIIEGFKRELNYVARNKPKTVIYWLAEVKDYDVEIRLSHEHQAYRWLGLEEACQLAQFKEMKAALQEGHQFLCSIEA
UniProt Q9H6K4: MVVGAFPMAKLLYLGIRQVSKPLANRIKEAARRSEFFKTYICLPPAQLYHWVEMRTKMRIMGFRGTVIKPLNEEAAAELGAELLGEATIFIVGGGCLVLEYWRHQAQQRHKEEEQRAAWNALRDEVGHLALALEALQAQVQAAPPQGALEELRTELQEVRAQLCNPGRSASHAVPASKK
UniProt O43929: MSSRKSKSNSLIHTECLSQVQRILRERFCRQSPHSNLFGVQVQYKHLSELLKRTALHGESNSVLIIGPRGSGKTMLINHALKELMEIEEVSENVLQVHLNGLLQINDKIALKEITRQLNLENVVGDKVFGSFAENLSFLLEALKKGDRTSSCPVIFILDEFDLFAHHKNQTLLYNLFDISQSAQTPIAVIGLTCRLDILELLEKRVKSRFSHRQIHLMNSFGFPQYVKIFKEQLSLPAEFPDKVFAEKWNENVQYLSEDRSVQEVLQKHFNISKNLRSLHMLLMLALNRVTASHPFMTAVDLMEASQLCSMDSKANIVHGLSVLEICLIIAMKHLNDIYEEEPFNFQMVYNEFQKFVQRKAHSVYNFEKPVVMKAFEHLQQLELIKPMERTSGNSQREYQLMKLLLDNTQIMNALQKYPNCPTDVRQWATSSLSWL
UniProt Q96CV9, whole entry, looked up: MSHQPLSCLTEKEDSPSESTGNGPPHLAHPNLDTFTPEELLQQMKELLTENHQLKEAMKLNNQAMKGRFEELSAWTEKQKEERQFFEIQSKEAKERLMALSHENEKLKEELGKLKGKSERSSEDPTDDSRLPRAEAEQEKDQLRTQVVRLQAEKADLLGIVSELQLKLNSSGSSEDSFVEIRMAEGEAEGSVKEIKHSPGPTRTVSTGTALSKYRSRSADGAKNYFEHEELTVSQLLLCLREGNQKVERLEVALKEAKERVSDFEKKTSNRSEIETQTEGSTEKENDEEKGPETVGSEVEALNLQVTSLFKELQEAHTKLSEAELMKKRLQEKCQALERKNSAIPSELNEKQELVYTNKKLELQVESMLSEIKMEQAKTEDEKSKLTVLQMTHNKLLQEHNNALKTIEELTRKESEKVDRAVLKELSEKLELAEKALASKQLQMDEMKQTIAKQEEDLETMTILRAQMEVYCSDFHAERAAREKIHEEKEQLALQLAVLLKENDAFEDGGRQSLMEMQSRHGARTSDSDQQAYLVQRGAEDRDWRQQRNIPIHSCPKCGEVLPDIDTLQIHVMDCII
UniProt P0C024: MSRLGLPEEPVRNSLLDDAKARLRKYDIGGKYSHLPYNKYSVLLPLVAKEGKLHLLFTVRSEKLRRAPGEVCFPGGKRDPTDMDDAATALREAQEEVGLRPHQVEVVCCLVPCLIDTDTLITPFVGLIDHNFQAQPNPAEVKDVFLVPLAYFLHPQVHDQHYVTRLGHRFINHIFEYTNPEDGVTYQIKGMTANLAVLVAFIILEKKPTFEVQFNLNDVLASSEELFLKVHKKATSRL
UniProt Q6PK18: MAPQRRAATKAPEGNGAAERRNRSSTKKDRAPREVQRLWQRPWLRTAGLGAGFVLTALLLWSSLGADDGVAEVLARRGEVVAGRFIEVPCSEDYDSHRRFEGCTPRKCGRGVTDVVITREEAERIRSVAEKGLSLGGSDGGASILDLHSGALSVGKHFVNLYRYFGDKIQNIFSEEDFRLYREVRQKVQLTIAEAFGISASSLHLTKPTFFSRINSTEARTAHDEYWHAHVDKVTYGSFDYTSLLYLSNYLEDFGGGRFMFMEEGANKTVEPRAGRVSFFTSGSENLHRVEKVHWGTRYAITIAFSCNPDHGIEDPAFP
UniProt P20774: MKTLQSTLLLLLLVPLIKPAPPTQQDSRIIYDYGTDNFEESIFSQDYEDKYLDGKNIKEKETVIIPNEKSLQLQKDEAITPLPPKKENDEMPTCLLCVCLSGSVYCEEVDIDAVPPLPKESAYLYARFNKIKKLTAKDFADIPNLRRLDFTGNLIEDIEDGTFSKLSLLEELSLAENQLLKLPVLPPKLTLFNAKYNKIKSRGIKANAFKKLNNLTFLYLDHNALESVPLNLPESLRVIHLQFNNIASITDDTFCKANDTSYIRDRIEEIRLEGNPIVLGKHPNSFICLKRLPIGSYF
UniProt O43913: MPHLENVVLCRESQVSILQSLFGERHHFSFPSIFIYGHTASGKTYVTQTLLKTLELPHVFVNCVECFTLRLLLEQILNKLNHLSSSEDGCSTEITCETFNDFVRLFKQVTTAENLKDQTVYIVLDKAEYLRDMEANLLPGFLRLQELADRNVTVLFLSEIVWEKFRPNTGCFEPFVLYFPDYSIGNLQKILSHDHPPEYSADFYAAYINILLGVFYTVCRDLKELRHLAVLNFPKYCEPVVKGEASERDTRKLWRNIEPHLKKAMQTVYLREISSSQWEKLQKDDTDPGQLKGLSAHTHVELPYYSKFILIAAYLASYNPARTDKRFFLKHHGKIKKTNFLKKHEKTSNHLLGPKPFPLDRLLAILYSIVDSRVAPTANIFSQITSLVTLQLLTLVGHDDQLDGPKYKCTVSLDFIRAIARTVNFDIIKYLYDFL
UniProt Q8TEA1: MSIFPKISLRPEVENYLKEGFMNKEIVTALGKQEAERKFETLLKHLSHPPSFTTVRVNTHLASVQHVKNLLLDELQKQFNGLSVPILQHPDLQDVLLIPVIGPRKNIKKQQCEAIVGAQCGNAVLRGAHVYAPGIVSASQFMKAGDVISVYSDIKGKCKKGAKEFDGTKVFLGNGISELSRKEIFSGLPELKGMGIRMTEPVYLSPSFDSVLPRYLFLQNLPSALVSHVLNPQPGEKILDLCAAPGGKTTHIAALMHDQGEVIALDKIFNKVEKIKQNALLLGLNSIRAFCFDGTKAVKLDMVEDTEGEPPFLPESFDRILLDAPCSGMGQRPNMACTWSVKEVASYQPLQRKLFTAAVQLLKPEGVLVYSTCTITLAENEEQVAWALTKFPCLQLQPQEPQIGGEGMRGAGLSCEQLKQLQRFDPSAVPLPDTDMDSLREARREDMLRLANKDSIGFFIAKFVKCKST
UniProt O95989: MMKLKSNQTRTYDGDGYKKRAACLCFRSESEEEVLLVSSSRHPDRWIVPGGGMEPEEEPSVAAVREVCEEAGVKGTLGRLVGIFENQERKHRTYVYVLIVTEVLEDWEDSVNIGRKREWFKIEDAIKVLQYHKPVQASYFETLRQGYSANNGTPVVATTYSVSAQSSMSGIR

[1] = compound: Cc1cccc(CC(=O)N2CCc3c2ccc(-c2cn(C)c4ncnc(N)c24)c3F)n1
How it was run: as §1

dasatinib = compound: Cc1nc(Nc2ncc(C(=O)Nc3c(C)cccc3Cl)s2)cc(N2CCN(CCO)CC2)n1 [dasatinib]
How it was run: as §1

[2] = compound: Cn1cc(-c2ccc3c(c2)CCN3C(=O)Cc2cccc(C(F)(F)F)c2)c2c(N)ncnc21
How it was run: as §1

[3] = compound: NC(=O)Nc1cc(-c2cccc(F)c2)sc1C(=O)N[C@H]1CCCNC1
How it was run: as §1

[4] = compound: NC(=O)c1cnc(N[C@@H]2CCCC[C@@H]2N)nc1Nc1cccc(-n2nccn2)c1
How it was run: as §1

[5] = compound: NCC(=O)Nc1ccc(-n2nc(C(F)(F)F)cc2-c2ccc3c(ccc4ccccc43)c2)cc1
How it was run: as §1

entinostat = compound: Nc1ccccc1NC(=O)c1ccc(CNC(=O)OCc2cccnc2)cc1 [entinostat]
How it was run: as §1

vorinostat = compound: O=C(CCCCCCC(=O)Nc1ccccc1)NO [vorinostat]
How it was run: as §1

[6] = compound: O=C1NC(=O)C(c2cnc3ccccn23)=C1c1cn2c3c(cc(F)cc13)CN(C(=O)N1CCCCC1)CC2
How it was run: as §1

nilotinib = compound: Cc1cn(-c2cc(NC(=O)c3ccc(C)c(Nc4nccc(-c5cccnc5)n4)c3)cc(C(F)(F)F)c2)cn1 [nilotinib]
How it was run: as §1

[7] = compound: Cc1nc(Nc2n[nH]c3c2CN(C(=O)N[C@H](CN(C)C)c2ccccc2)C3(C)C)c2sccc2n1
How it was run: as §1

[8] = compound: Cc1ncc(-c2ccnc(Nc3ccc(S(C)(=O)=O)cc3)n2)n1C(C)C
How it was run: as §1

[9] = compound: Cn1cc(-c2ccc3nnc(C(F)(F)c4ccc5ncccc5c4)n3n2)cn1
How it was run: as §1

tipifarnib = compound: Cn1cncc1[C@@](N)(c1ccc(Cl)cc1)c1ccc2c(c1)c(-c1cccc(Cl)c1)cc(=O)n2C [tipifarnib]
How it was run: as §1

mubritinib = compound: FC(F)(F)c1ccc(/C=C/c2nc(COc3ccc(CCCCn4ccnn4)cc3)co2)cc1 [mubritinib]
How it was run: as §1

[10] = compound: NC1(c2ccc(-c3nc4ccn5c(=O)[nH]nc5c4cc3-c3ccccc3)cc2)CCC1
How it was run: as §1

silmitasertib = compound: O=C(O)c1ccc2c(c1)nc(Nc1cccc(Cl)c1)c1ccncc12 [silmitasertib]
How it was run: as §1

citarinostat = compound: O=C(CCCCCCNC(=O)c1cnc(N(c2ccccc2)c2ccccc2Cl)nc1)NO [citarinostat]
How it was run: as §1

[11] = compound: c1cc(OCCN2CCCCC2)cc(-c2n[nH]c3ccc(-c4nnc[nH]4)cc23)c1
How it was run: as §1

Measured: log2 fold change

NUDT5 (UniProt C9JYY9)
inactive: bafetinib -0.285 | [1] -0.117 | dasatinib 0.054 | [2] 0.03 | [3] -0.285 | [4] -0.344 | [5] -0.283 | entinostat -0.193 | vorinostat -0.22 | [6] -0.349

NUDT2 (UniProt P50583)
inactive: bafetinib -0.031 | nilotinib -0.03 | [7] 0.044 | dasatinib -0.149 | [8] -0.001 | [2] -0.004 | [9] 0.034 | tipifarnib -0.048 | mubritinib 0 | [3] -0.026 | [4] 0.065 | [10] -0.035 | [5] -0.101 | entinostat 0.048 | silmitasertib 0.043 | [6] -0.052

OPA3 (UniProt Q9H6K4)
inactive: bafetinib -0.135 | nilotinib -0.051 | [7] 0.135 | dasatinib 0.1 | [8] -0.068 | [2] 0.023 | [9] -0.03 | tipifarnib 0.103 | mubritinib 0.126 | [3] -0.057 | [4] 0.026 | [10] 0.013 | [5] -0.007 | entinostat 0.007 | citarinostat 0.014 | silmitasertib 0.086 | [6] -0.035 | [11] -0.039

ORC4 (UniProt O43929)
inactive: bafetinib -0.023 | [1] 0.007 | nilotinib -0.094 | [7] -0.077 | dasatinib -0.237 | [8] -0.031 | [2] 0.012 | [9] -0.051 | tipifarnib 0.012 | mubritinib 0.038 | [3] -0.026 | [4] -0.007 | [10] -0.15 | [5] -0.072 | entinostat 0.087 | vorinostat 0.19 | citarinostat 0.16 | silmitasertib -0.046 | [6] 0.028 | [11] -0.054

OPTN (UniProt Q96CV9)
inactive: bafetinib 0.069 | [1] -0.09 | nilotinib -0.048 | [7] -0.018 | dasatinib -0.007 | [8] -0.125 | [2] -0.018 | [9] -0.074 | tipifarnib 0.083 | mubritinib -0.043 | [3] 0.01 | [4] -0.178 | [10] 0.113 | [5] -0.021 | entinostat 0.102 | vorinostat -0.073 | silmitasertib 0.331 | [6] 0.256

NUDT7 (UniProt P0C024)
inactive: bafetinib 0.418 | [1] -0.122 | nilotinib 0.093 | [7] 0.006 | [8] -0.03 | [9] 0.027 | [3] 0.01 | entinostat -0.05 | vorinostat 0.286 | [6] 0.12

OGFOD3 isoform 2 (UniProt Q6PK18)
inactive: bafetinib 0.012 | [1] -0.021 | nilotinib 0.085 | [7] -0.015 | dasatinib 0.041 | [8] 0.02 | [2] 0.018 | tipifarnib 0.025 | mubritinib -0.012 | [3] -0.089 | [4] 0.035 | [10] -0.192 | [5] -0.018 | entinostat -0.072 | vorinostat -0.063 | citarinostat -0.068 | silmitasertib -0.028 | [6] -0.023 | [11] -0.052

OGN (UniProt P20774)
inactive: bafetinib -0.029 | nilotinib 0.032 | [7] 0 | dasatinib -0.099 | [8] 0.173 | [2] 0.228 | [9] 0.14 | tipifarnib 0.087 | mubritinib -0.1 | [3] -0.066 | [4] -0.151 | [10] -0.054 | [5] 0.084 | entinostat -0.043 | citarinostat 0.075 | silmitasertib 0.125 | [6] 0.096 | [11] 0.049

OCIAD1 (UniProt D6RDK6)
inactive: bafetinib 0.044 | [1] -0.127 | dasatinib 0.044 | [2] -0.113 | [9] 0.095 | tipifarnib 0.198 | mubritinib 0.016 | [3] -0.157 | [4] -0.302 | [10] -0.27 | [5] -0.247 | entinostat -0.049 | vorinostat 0.006 | citarinostat -0.141 | silmitasertib 0.249 | [6] 0.068 | [11] -0.235

ORC5 (UniProt O43913)
inactive: bafetinib 0.01 | [1] 0.027 | nilotinib 0.133 | [7] -0.001 | dasatinib -0.231 | [8] -0.114 | [2] 0.067 | [9] 0.044 | tipifarnib 0.031 | mubritinib 0.045 | [3] -0.322 | [4] -0.188 | [10] -0.253 | [5] -0.058 | entinostat -0.101 | vorinostat 0.139 | citarinostat 0.039 | silmitasertib -0.072 | [11] -0.004

NSUN6 (UniProt Q8TEA1)
inactive: bafetinib -0.03 | [1] 0.029 | nilotinib 0.024 | [7] -0.038 | dasatinib -0.009 | [8] -0.045 | [2] 0.095 | [9] -0.045 | tipifarnib -0.034 | mubritinib 0.038 | [3] -0.044 | [4] -0.012 | [10] -0.013 | [5] -0.019 | entinostat -0.011 | vorinostat 0.012 | citarinostat -0.007 | silmitasertib -0.014 | [6] -0.04 | [11] -0.045

NUDT3 (UniProt O95989)
inactive: bafetinib -0.056 | [1] 0.015 | nilotinib -0.035 | [7] 0.001 | dasatinib 0.07 | [8] -0.028 | [2] -0.03 | [9] 0.049 | tipifarnib 0.039 | mubritinib 0.028 | [3] -0.026 | [4] -0.034 | [10] -0.017 | [5] -0.006 | entinostat -0.029 | vorinostat 0.07 | citarinostat -0.036 | silmitasertib -0.034 | [6] -0.049 | [11] 0.018

Reprinted at random: two entries already listed, in no set order.
ORC5 (UniProt O43913)
inactive: bafetinib 0.01 | [1] 0.027 | nilotinib 0.133 | [7] -0.001 | dasatinib -0.231 | [8] -0.114 | [2] 0.067 | [9] 0.044 | tipifarnib 0.031 | mubritinib 0.045 | [3] -0.322 | [4] -0.188 | [10] -0.253 | [5] -0.058 | entinostat -0.101 | vorinostat 0.139 | citarinostat 0.039 | silmitasertib -0.072 | [11] -0.004

NSUN6 (UniProt Q8TEA1)
inactive: bafetinib -0.03 | [1] 0.029 | nilotinib 0.024 | [7] -0.038 | dasatinib -0.009 | [8] -0.045 | [2] 0.095 | [9] -0.045 | tipifarnib -0.034 | mubritinib 0.038 | [3] -0.044 | [4] -0.012 | [10] -0.013 | [5] -0.019 | entinostat -0.011 | vorinostat 0.012 | citarinostat -0.007 | silmitasertib -0.014 | [6] -0.04 | [11] -0.045
